From PMC10163288
The list shows a part of the results.

B1: il10ra_site1_sap_20_mot_HHH_b2_05343_000000235_0001_19_35_H_._HHH_b1_07100_af2_0001_0000400018_0000001_0_0001 (protein)
chain: SSSDEEEVEELLIELAQLSARVSPEQQQLLQEALVRAHHLLHEGNPEEAREVLREVLEKVRSSSS
B2: il10ra_site1_normal_mot_HHH_b1_05697_000000276_0001_40_57_H_._HHH_b1_08314_af2_0001_0000100004_0000003_0 (protein)
chain: SSSSNNEEQHIRAILIFAKQTAEEGNPHAARFAVEYAYELAEELGNEELLKEAEELLKELSSSSS
B3: il10ra_site1_sap_4_mot_HHH_b1_07527_000000076_0001_1_15_H_._HHH_b2_00812_0001_0000200014_0000001_0_0001 (protein)
chain: SSSSDEEVLELLREAVRLLLRGNYEEAEKVLREAEQIARELNNERALRMVEDLLKIIESALSSSS
B4: il10ra_site1_sap_15_mot_HHH_b2_03062_af2_000000013_0001_23_38_H_._HHH_b1_01731_0001_0000300027_0000001_0_0001_af2pred_0001 (protein)
chain: SSSSNDRQRVYELLRKALELLRRGDPEEAREVLEEAKEIAEEANSLVFRWSLEFIEKEVNSSSSS
B5: il10ra_site1_normal_mot_HHH_b2_03438_af2_000000049_0001_18_34_H_._HHH_b1_02663_0001_0000500063_0000001_0 (protein)
chain: SSSSDEERRRAYELLRELAEVIHEGDEERAEELIEEIRELLEQVNDVLLLFQLKFLERALNSSSS
B6: il10ra_site1_normal_mot_HHH_b2_00984_000000042_0001_1_20_H_._HHH_b2_02580_af2_0001_0000200011_0000001_0 (protein)
chain: SSSSDEEEEEAEELLERLEELIKRGDREEALRLAQEALRVAFELSNPEILQRIWELIKELSSSSS
B7: il10ra_site1_normal_mot_8756ee2cf497b5429c717dfc0c0bcfd6_0001_000000186_0001_1_13_H_._HHH_b2_06757_af2_0001_0000200007_0000001_0 (protein)
chain: SSSSSSAEVSQELMELIREALKIEDKEEAEEVLREAEELAKENNNDVILAQLKYLLRQLSSSSSS
B8: il10ra_site1_sap_9_mot_HHH_b2_00943_af2_000000149_0001_1_17_H_._HHH_b1_04539_0001_0000200020_0000001_0_0001 (protein)
chain: SSSSSDQEEQHARAILYFAKLVDNPHARKLMLEVALRLARELGDEELEEEIEELLREINSSSSSS
B9: il10ra_site1_sap_16_mot_HHH_b2_01184_af2_000000191_0001_44_57_H_._HHH_b1_01019_0001_0000100001_0000001_0_0001_af2pred_0001 (protein)
chain: SSSSDEEEEELEELLRILRELGDRVAVLSVEYILEIYERTGDEKALKIAIEAAKRIIEELESSSS
B10: il10ra_site1_normal_mot_HHH_b1_05357_000000034_0001_23_39_H_._HHH_b2_02453_0001_0000100002_0000002_0 (protein)
chain: SSSSDVEEELEELLEEAKRIEDRARASHVLIRAYALAHHRNDPELEEFVREESLKIVEEGSSSSS
B11: il10ra_site1_normal_mot_HHH_b1_05098_000000185_0001_1_18_H_._HHH_b1_08425_0001_0000600040_0000001_0 (protein)
chain: SSSSDEEQEELLELSLEAFRLALRGNPEEAEEVVERARKLAEELNDERALRVIRALAEVLSSSSS
B12: il10ra_site1_sap_12_mot_HHH_b1_08281_000000266_0001_42_57_H_._HHH_b2_06600_af2_0002_0000100006_0000002_0_0001 (protein)
chain: SSSNRAAKWLAEQAAQAVELLLRQGDHERAEWAFENLERLLKQVGDPELKEILEEIEELLRSSSS
B13: il10ra_site1_normal_mot_HHH_b1_06914_000000280_0001_1_18_H_._HHH_b1_07761_0001_0000300040_0000001_0 (protein)
chain: SSSSSEEDEELYRLSRRAAELLARGNPEEAEELLEEAERLAERNNNRVLLFTIRFLLRQVTSSSS
B14: il10ra_site1_normal_mot_HHH_b1_02131_000000111_0001_1_18_H_._HHH_b1_04628_af2_0001_0000600030_0000001_0 (protein)
chain: SSSSSDEEELEELLEELEKLVKKNDVQRALEIAIHILRLAFRNSDEEVLQEAHELVLSLRSSSSS
B15: il10ra_site1_normal_mot_HHH_b1_04771_000000013_0001_40_56_H_._HHH_b1_06413_0001_0000200008_0000001_0 (protein)
chain: SSSSDLDERVSRLSQEVFRLALRGNPEEAEKVVEEAIELAEEANNERALRVLRDLEQVLESSSSS
B16: il10ra_site1_sap_17_mot_HHH_b2_00943_af2_000000149_0001_1_17_H_._HHH_b1_03323_0001_0000100004_0000001_0_0001_af2pred_0001 (protein)
chain: SSSSDEEVEREVEELLEEAKKVEDPEEVTYLLIRAFALATRNRDEELRELVEKVAQEVTESSSSS
B17: il10ra_site1_sap_24_mot_HHH_b2_04275_000000272_0001_20_36_H_._HHH_b1_07814_0001_0000100010_0000002_0_0001 (protein)
chain: SSSSSDEEVKEELEELFEEAEKTNDRELLAELAHLAIEYAFRNSDEEVLRLAWELIKRLSSSSSS
B18: il10ra_site1_normal_mot_HHH_b1_02997_000000220_0001_39_52_H_._HHH_b2_07840_0001_0000400035_0000001_0_af2pred_0001 (protein)
chain: SSSSSSDLKELIRELVEAVDEGDEEEAREIYEEAEELARERNDLIALLILEFALKDVESSSSSSS
B19: il10ra_site1_sap_27_mot_HHH_b2_08186_000000021_0001_43_56_H_._HHH_b2_00053_0001_0000300026_0000001_0_0001 (protein)
chain: SSSSSDQEEALELSQRAFHAALRGNPEEAEELLEKAHELAEELNDERLRRMIRDMQKAIKSSSSS
B20: il10ra_site1_sap_24_mot_HHH_b1_01939_000000180_0001_37_52_H_._HHH_b2_01511_0001_0000100011_0000001_0_0001 (protein)
chain: SSSSDEEEEELEELIRELEELLKRGDEEEVSRLAQRALRLAFQLSDPEALHRIWEILRKLSSSSS
B21: il10ra_site1_sap_24_mot_HHH_b1_00103_000000293_0001_1_15_H_._HHH_b2_07203_0001_0000100004_0000002_0_0001_af2pred_0001 (protein)
chain: SSSSSEEVEKLIEEAERALEEGNPEEAKELLFEAALLAARLKDPELAELVARLIAELLRLGSSSS
B22: il10ra_site1_sap_19_mot_HHH_b1_04693_000000238_0001_19_36_H_._HHH_b2_00279_0001_0000200008_0000001_0_0001 (protein)
chain: TRQIEAVLRNARTAGDEEVERIVERVEELIKRGNLEEAEELLRELAERTGNLFLFQLLFIVRALK
B23: il10ra_site1_normal_mot_HHH_b1_03900_000000129_0001_1_16_H_._HHH_b1_03343_af2_0001_0000300011_0000001_0 (protein)
chain: SSSSDDRVYELIRRIARLLIRGNPEEAEELLRELEELAQELNDPELERAVEILEEAIEATSSSSS
B24: il10ra_site1_normal_mot_HHH_b1_06994_000000193_0001_40_55_H_._HHH_b2_03966_0001_0000200017_0000001_0 (protein)
chain: SSSSDEERELIEAALRLARQAYEAGDPRAVRFLLIAAELLAEEINDPELEREIEELEEELSSSSS
B25: il10ra_site1_normal_mot_HHH_b1_00999_000000080_0001_41_55_H_._HHH_b1_01510_0001_0000400038_0000002_0 (protein)
chain: SSSSSSTREEVEELLEELEHLTDPREFLEVILRIIELIFRLKDEELLQELWEIAKRLGSSSSSSS
B26: il10ra_site1_sap_20_mot_HHH_b2_00984_000000042_0001_1_20_H_._HHH_b1_08566_af2_0001_0000200002_0000001_1_0001 (protein)
chain: SSSSDLEEKIEEVERQVREALERGDDEEARKLVEELARLVARRRDPRASYLVIQLYAEVWQSSSS
B27: il10ra_site1_sap_14_mot_HHH_b1_06789_af2_000000041_0001_1_20_H_._HHH_b1_02399_af2_0001_0000100006_0000001_0_0001 (protein)
chain: SSSSDEVSEEVMRLLEKASELAQNGDREEAQRLAEEARELAEEANNPILRLSVEYLLRSINSSSS
B28: il10ra_site1_sap_13_mot_5d0551e3c4357af680d60aaa850e4cea_0001_1_af2_000000133_0001_18_33_H_._HHH_b2_02281_0001_0000100002_0000001_0_0001 (protein)
chain: SSSSDEAVKRVAELIKKANELWREGNPEEVERLLEEAERVAEEAGNQLLLETVEYAARINSSSSS
B29: il10ra_site1_normal_mot_HHH_b2_03220_af2_000000223_0001_23_40_H_._HHH_b2_06988_0001_0000100002_0000002_0_af2pred_0001 (protein)
chain: SSSSSDEQRRAIELIREALEARQRGDPEEARQLLEEAEELAEEGNNPLAERLARLLLEQLSSSSS
B30: il10ra_site1_sap_28_mot_HHH_b2_01776_000000118_0001_38_52_H_._HHH_b1_02755_0001_0000100001_0000001_0_0001_af2pred_dldesign_0_af2pred (protein)
chain: SSSSMKEWLERALANTRQLIDLGYKEEAAKALEYLEAVAKIENNPEFLARLEELRARLAELSSSS
B31: il10ra_site1_sap_15_mot_HHH_b2_07336_af2_000000224_0001_1_17_H_._HHH_b2_03461_af2_0001_0000300012_0000001_0_0001 (protein)
chain: SSSSDELEEELIKLLEELLHAYVEGDEELIEKLLEEVKKIAEEANNRAARKSLEAIERALSSSSS
B32: il10ra_site1_normal_mot_HHH_b2_00564_af2_000000012_0001_18_34_H_._HHH_b2_05650_0001_0000300024_0000001_0 (protein)
chain: SSSSSTEELYEFARRLAELLHEGDKDEVRELLEEAKQLAEELNNENIEEQLKFIERLVERSSSSS
B33: il10ra_site1_sap_15_mot_b26a303360aa2756ef5b79665ce52f45_0001_000000179_0001_1_11_H_._HHH_b1_01396_0001_0000100011_0000001_0_0001_af2pred_0001 (protein)
chain: SSSSDVEEELEELLEEAKRIEDLDRAAYVLIRAFALATERRDPELEEFVKRAALEISEEGSSSSS
B34: il10ra_site1_normal_mot_HHH_b1_03094_000000294_0001_1_20_H_._HHH_b2_05552_0001_0000300030_0000001_0 (protein)
chain: SSSSDAEEVLELIIRAFRALLRGDPEEAEKLVEEAKEIAEENNDPELEKAVEILEEAVRAQSSSS
B35: il10ra_site1_sap_8_mot_HHH_b1_05357_000000034_0001_23_39_H_._HHH_b1_00439_af2_0001_0000200019_0000001_0_0001 (protein)
chain: SSSSSVEERLAELMLEAVRLAAKENDPEEAREVLEEVERLAEENNDEELQRYLKILEHFVNSSSS
B36: il10ra_site1_normal_mot_HHH_b1_02397_af2_000000085_0001_39_57_H_._HHH_b2_07534_0001_0000300029_0000001_1 (protein)
chain: SSSSDEEEEELRRLLEEVEELLERGDPEEAARVTQELLRLIFRLRDEEALKRLHELFMRAASSSS
B37: il10ra_site1_normal_mot_HHH_b1_00999_000000080_0001_41_55_H_._HHH_b1_03194_0001_0000200012_0000001_0 (protein)
chain: SSSSSSDVEELLEELEELLEQGNKEEALEILQRALQLAYRRSDPELLKLLWEFAKRLGSSSSSSS

Target: il10ra, Q13651
Assay: yeast display titration

Apparent Kd, inactive:
B1 no binding seen
B2 no binding seen
B3 no binding seen
B4 no binding seen
B5 no binding seen
B6 no binding seen
B7 no binding seen
B8 no binding seen
B9 no binding seen
B10 no binding seen
B11 no binding seen
B12 no binding seen
B13 no binding seen
B14 no binding seen
B15 no binding seen
B16 no binding seen
B17 no binding seen
B18 no binding seen
B19 no binding seen
B20 no binding seen
B21 no binding seen
B22 no binding seen
B23 no binding seen
B24 no binding seen
B25 no binding seen
B26 no binding seen
B27 no binding seen
B28 no binding seen
B29 no binding seen
B30 no binding seen
B31 no binding seen
B32 no binding seen
B33 no binding seen
B34 no binding seen
B35 no binding seen
B36 no binding seen
B37 no binding seen

Taken from the listing (two entries):
Apparent Kd, inactive:
B12 no binding seen
B13 no binding seen
